Measurements from paper PMC4083437.
These are yes or no findings as the source states them, for the method shown. Binding seen in cells or lysates may run through a third protein. Some results given as binding are weak or reduced against the parent protein; the word gives no strength.

B1: TAF4 (protein, UniProt E9QAP7 1-1042)
chain: MAAGSDLLDEVFFNSEVDEKVVSDLVGSLESQLAASAAHHHHLAPRTPELRAAAAGALGNHVVSGSPAGAAGAGPAASAEGAPAAAPEPPPAGRARPAGGGPRRPGSSSPRRLLVPAGPAPAPAKLRPLPEASAGPCPAAAAAAAATAAAVAGPDPAAAAPPAGPGASKPGPPGPPGPGAAQTLNGSAAPPTAPHAAPAVSPVNNGPAPPPAAGSVIQAAPAPAAPSPPAAPAPAAPPPPAPPAPVAPARPPGHPAAPAPPVSPAAAAAAAAAAAAAQNGAAPAPAAASGGAAGLGQPGAGAQGAKAEAPKPGPGPGPGPAAAAAAAGVAGGGAAGSVLLGPAMPGALPGPAPGTPAGLAKGAAAATPSLPRTPAATTGAIRATLTPTVLAPRLPQPPQNPTNIQNFQLPPGMVLVRSENGQLLMIPQQALAQMQAHAQAQPQSTMAPRPATPTGAPPVQISTVQAPGTPIIARQVTPTTIIKQVSQAQTTVQPTTTLQRSPGVQPQLVLGGSAQPASLGTATAVQTGTPQRTVPGASTTSTAATETMENVKKCKSFLSTLIKLASSGKQSTETAANVKDLVQNLLDGKIEAEDFTSRLYRELNSSPQPYLVPFLKRSLPALRQLTPDSAAFIQQSQQQQPPASQATTALTAVVLSSSVQRTAGKTAASVTSALQPPVISLTQPTQVGVGKQAPPTPLVIQQPPKPGALIRPPQVTLTQTPMVALRQPHNRIMLTTPQQIQLNQLQPVPVVKPTVLPGTKALSTVSAQAAAAQKNKLKEPGGGSFRDDDDINDVASMAGVNLSEESARILATNSELVGTLTRSCKDDTFLLPAPLQRRILEIGKKHGITELHPDVVSYVSHATQQRLQNLVEKISETAQQKNFSYKDDDRYEQASDVRAQLKFFEQLDQIEKQRKDEQEREILMRAAKSRSRQEDPEQLRLKQKAKEMQQQELAQMRQRDANLTALAAIGPRKKRKVDCTGPGSGAEGSGPGAAVPGGSGVGTPRQFTRQRITRVNLRDLIFCLENERETSHSLLLYKAFLK
B2: TAF7 (protein, UniProt Q9R1C0 1-341)
chain: MSKNKDDAPHELESQFILRLPPEYAATVRRAVQSGHVNLKDKLSIELHPDGRHGIVRVDRVPLAAKLVDLPCVTESLKTIDKKTFYKTADISQMLVATVDGDLYPPVEEAAATADPKANKKKDKDKEKKFVWNHGITLPLKNVRKRRFRKTAKKKYIESPDVEKEVKRLLSTDAEAVSTRWEIIAEDETKETENQGLDISSPGMSGHRQGHDSLEHDELREIFNDLSSSSEDEEDVNILDTEEDLERQLQDKLNESDEQHQENEGTNQLVMGIQKQIDNMKGKLQETQDRAKRQEDLIMKVENLALKNRFQAVLDELKQKEDREKEQLSSLQEELESLLEK

Assays:
[1] = biological target: T1, TAF9B (mouse (endogenous in EB-MN from murine ES cells and in newborn mouse spinal column)) (UniProt Q6NZA9); experiment: co-IP; nuclear extract of EB-MN differentiated for 8 days; 1 mg extract with antibodies (TAF9B or TBP) on protein A sepharose or protein G Dynabeads overnight at 4°C; washes with 300 mM KCl, 0.05% NP-40 and once with 100 mM KCl; Western blotting
T1 sequence: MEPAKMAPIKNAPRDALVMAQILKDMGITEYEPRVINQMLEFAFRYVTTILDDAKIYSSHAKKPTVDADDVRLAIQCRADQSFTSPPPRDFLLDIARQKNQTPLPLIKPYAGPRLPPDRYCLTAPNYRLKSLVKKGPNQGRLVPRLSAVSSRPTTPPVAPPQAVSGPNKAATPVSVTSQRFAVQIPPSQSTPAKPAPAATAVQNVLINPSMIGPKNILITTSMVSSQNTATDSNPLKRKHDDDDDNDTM

[2] = biological target: T2, TBP (mouse (endogenous in EB-MN from murine ES cells)) (UniProt P29037); experiment: as above
T2 sequence: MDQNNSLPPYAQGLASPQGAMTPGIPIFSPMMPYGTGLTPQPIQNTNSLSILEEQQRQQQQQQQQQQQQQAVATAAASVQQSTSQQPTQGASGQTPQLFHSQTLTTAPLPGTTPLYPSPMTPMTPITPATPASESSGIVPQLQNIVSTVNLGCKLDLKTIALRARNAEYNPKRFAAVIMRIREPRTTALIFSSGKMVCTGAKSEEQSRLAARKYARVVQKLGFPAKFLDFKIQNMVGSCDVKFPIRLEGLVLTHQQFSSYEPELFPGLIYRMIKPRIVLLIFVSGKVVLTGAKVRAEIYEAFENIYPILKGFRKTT

Binder	binding [1]	binding [2]
B1	binds weakly	binds
B2	binds weakly	binds
